In the experiment the target is T1, Anillin-GFP (full-length human anillin, isoform 2, 1087 amino acids) (human), Q9NQW6.
T1 chain: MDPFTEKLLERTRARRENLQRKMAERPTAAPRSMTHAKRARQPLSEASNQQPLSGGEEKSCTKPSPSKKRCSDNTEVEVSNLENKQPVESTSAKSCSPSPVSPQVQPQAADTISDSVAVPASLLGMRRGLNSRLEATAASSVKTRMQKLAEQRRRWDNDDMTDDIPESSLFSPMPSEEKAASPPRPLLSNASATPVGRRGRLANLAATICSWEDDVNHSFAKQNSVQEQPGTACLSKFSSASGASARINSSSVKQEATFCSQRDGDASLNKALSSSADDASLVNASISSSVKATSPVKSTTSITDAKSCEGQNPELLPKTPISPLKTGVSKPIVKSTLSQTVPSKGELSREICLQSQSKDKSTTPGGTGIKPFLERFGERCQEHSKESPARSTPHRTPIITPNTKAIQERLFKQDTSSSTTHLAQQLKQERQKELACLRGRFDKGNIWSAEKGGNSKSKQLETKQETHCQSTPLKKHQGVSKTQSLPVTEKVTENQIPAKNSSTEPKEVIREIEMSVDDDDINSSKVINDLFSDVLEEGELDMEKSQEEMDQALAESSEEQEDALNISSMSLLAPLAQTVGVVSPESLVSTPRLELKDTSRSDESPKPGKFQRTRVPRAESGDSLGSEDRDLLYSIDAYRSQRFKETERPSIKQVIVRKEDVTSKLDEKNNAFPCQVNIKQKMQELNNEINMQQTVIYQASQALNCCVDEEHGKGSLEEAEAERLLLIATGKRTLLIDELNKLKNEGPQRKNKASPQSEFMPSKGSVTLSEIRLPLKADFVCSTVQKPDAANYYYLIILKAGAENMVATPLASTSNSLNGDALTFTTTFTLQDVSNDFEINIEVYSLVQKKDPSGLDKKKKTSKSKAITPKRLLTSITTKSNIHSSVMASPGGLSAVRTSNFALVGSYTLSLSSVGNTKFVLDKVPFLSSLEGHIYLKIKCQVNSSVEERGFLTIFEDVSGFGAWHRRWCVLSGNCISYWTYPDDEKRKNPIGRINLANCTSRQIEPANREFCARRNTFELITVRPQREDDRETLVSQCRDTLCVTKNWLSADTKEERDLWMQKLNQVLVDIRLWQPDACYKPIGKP
In words: mass photometry (iSCAT); anillin alone in solution at 5, 15 or 50 nM; both purified. As to conditions: remark: other sources report otherwise.

No constants are given. Whether binding was seen depends on the method and setting. Sequences can lack the tags named with a protein.

B1: Anillin-GFP (full-length human anillin, isoform 2, 1087 amino acids), Q9NQW6-2 1-1087 (protein)
chain: MDPFTEKLLERTRARRENLQRKMAERPTAAPRSMTHAKRARQPLSEASNQQPLSGGEEKSCTKPSPSKKRCSDNTEVEVSNLENKQPVESTSAKSCSPSPVSPQVQPQAADTISDSVAVPASLLGMRRGLNSRLEATAASSVKTRMQKLAEQRRRWDNDDMTDDIPESSLFSPMPSEEKAASPPRPLLSNASATPVGRRGRLANLAATICSWEDDVNHSFAKQNSVQEQPGTACLSKFSSASGASARINSSSVKQEATFCSQRDGDASLNKALSSSADDASLVNASISSSVKATSPVKSTTSITDAKSCEGQNPELLPKTPISPLKTGVSKPIVKSTLSQTVPSKGELSREICLQSQSKDKSTTPGGTGIKPFLERFGERCQEHSKESPARSTPHRTPIITPNTKAIQERLFKQDTSSSTTHLAQQLKQERQKELACLRGRFDKGNIWSAEKGGNSKSKQLETKQETHCQSTPLKKHQGVSKTQSLPVTEKVTENQIPAKNSSTEPKEVIREIEMSVDDDDINSSKVINDLFSDVLEEGELDMEKSQEEMDQALAESSEEQEDALNISSMSLLAPLAQTVGVVSPESLVSTPRLELKDTSRSDESPKPGKFQRTRVPRAESGDSLGSEDRDLLYSIDAYRSQRFKETERPSIKQVIVRKEDVTSKLDEKNNAFPCQVNIKQKMQELNNEINMQQTVIYQASQALNCCVDEEHGKGSLEEAEAERLLLIATGKRTLLIDELNKLKNEGPQRKNKASPQSEFMPSKGSVTLSEIRLPLKADFVCSTVQKPDAANYYYLIILKAGAENMVATPLASTSNSLNGDALTFTTTFTLQDVSNDFEINIEVYSLVQKKDPSGLDKKKKTSKSKAITPKRLLTSITTKSNIHSSVMASPGGLSAVRTSNFALVGSYTLSLSSVGNTKFVLDKVPFLSSLEGHIYLKIKCQVNSSVEERGFLTIFEDVSGFGAWHRRWCVLSGNCISYWTYPDDEKRKNPIGRINLANCTSRQIEPANREFCARRNTFELITVRPQREDDRETLVSQCRDTLCVTKNWLSADTKEERDLWMQKLNQVLVDIRLWQPDACYKPIGKP
On to B1, for which the binding entry is “no binding (tested: 5, 15 or 50 nM)”.

(Values after publication PMC12402178.)
